In article doi:10.1101/2023.10.09.561572:
The exact form of at least one protein or probe is not confirmed. The comparison behind a weaker result is the experiment's own reference, which may not be listed here.

Protein sequences, listed by entry. Tags and fused reporters are not part of them.
UniProt P84101, whole entry, stated change not applied: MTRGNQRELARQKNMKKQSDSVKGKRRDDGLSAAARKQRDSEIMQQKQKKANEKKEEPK

Target: SERF2 all conserved lysines of both interfaces mutated (Homo sapiens) (UniProt P84101)
Assay: EMSA
Details: 5 uM each, further reduced; recombinant protein; residues 1-59; label: 6-FAM (FP), unlabelled in NMR/EMSA

UAGGGUUAGGGUUAGGGUUAGGG [TERRA23 rG4]: binds more weakly.
